# Measurements reported in patent US20260083703A1, “INDOLINE DERIVATIVES AS SEROTONERGIC AGENTS USEFUL FOR THE TREATMENT OF DISORDERS RELATED THERETO” (MINDSET PHARMA INC., priority 2022, published 2026).
# At least one structure is not confirmed: it was looked up by name or label, or the drawing left a doubt.
# Tested on: Male, C57BL/6J mice
# Assay: Mouse head twitch
# Type: in vivo
# Details: SC; psilocybin 0.1-10, 5-MeO DMT 1-30, (R)-I-54 1-60 mg/kg
# Procedure: The effect of different doses of representative compounds of Formula I are evaluated on head-twitch response (HTR) and other behavioural responses as behavior-based models of psychedelic activity.
# Male, C57BL/6J mice (body weight range 20-30 g) were dosed with the appropriate dose of test article, and following a 1-minute pre-treatment time, placed in individual observation chambers. Animals were visually assessed for the incidence head twitches continuously over a 1 hr period. Head twitches were defined as a rapid jerk of the head which was not elicited by an external tactile stimulus (Come and Pickering, Psychopharmacologia, 1967, 11(1): 65-78). Each head twitch was individually counted by a trained observer, and the data expressed as the mean±SEM of 6-10 mice per group. Mice were used in a single experiment only.
structure (smiles),measurement,value
CN(C)CCc1c[nH]c2cccc(OP(=O)(O)O)c12 [Psilocybin],head twitch response over the dose range tested,dose related increase in the incidence of head twitch response
